Reference: PubChem BioAssay AID1224830 (NIAID, 2016)
Shown is one part, drawn at random, of about 18,000 deposited reagents. About 2,900 of all reagents (16%) were called active. 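Calls are made per well; low scores hint the gene aids the LPS response, high scores that it dampens it.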 Repeated entries: four replicate wells of each siRNA pool.

- Assay: 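Genes whose knock-down alters the TNF-alpha reporter response to LPS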 (primary screen)
- System: human THP-1 monocytic leukaemia cells, TNF dual-luciferase reporter clone, PMA-differentiated to macrophage-like cells
- Reagent: siRNA pool against human genes, 50 nM
- Time to read-out: LPS for 4 h, given about 3 days after siRNA transfection
- Treatment: bacterial LPS (TLR4 ligand), 10 ng/ml
- Measured: 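TNF firefly reporter luminescence divided by renilla, normalised to the plate median, then turned into a robust z-score for each replicate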
- Reading the numbers: TNF reporter robust z-score: higher = stronger TNF reporter response to LPS
- Rule for the call: 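Each well counts as active if its z-score is over 2.8 or under -1.5; controls are left without a call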

| Gene | TNF reporter robust z-score | Outcome |
| --- | --- | --- |
| GATA3 | -1.07 | inactive |
| GATA3 | -1.09 | inactive |
| GATA3 | -2.08 | active |
| GATA3 | -1.77 | active |
| NR2C2 | -0.01 | inactive |
| NR2C2 | -0.05 | inactive |
| NR2C2 | 0.4 | inactive |
| NR2C2 | -0.21 | inactive |
| SMOC2 | -1.13 | inactive |
| SMOC2 | 0.45 | inactive |
| SMOC2 | -0.08 | inactive |
| KRT2 | -1.8 | active |
| KRT2 | -1.76 | active |
| KRT2 | -1.6 | active |
| ATOSB | -0.44 | inactive |
| ATOSB | -0.54 | inactive |
| ATOSB | -1.07 | inactive |
| ATOSB | -0.14 | inactive |
| KIF2C | -0.01 | inactive |
| KIF2C | 0.28 | inactive |
| KIF2C | -0.24 | inactive |
| KIF2C | 0.2 | inactive |
| DLG4 | -0.45 | inactive |
| DLG4 | 0.57 | inactive |
| DLG4 | -0.33 | inactive |
| DLG4 | 0.21 | inactive |
| NONO | -0.57 | inactive |
| NONO | -0.38 | inactive |
| NONO | 0.46 | inactive |
| NONO | 0.69 | inactive |
| SDK1 | -0.6 | inactive |
| SDK1 | -0.42 | inactive |
| SDK1 | -0.89 | inactive |
| SDK1 | 0.26 | inactive |
| IRF1 | 0.3 | inactive |
| IRF1 | 0.36 | inactive |
| IRF1 | -0.2 | inactive |
| IRF1 | 0.31 | inactive |
| MYO1A | -0.69 | inactive |
| MYO1A | -0.41 | inactive |
| MYO1A | -1.43 | inactive |
| MYO1A | -0.93 | inactive |
| TCEAL9 | -0.34 | inactive |
| TCEAL9 | -1.2 | inactive |
| TCEAL9 | -0.58 | inactive |
| TCEAL9 | -0.12 | inactive |
| GLYR1 | 2.46 | inactive |
| GLYR1 | -0.82 | inactive |
| GLYR1 | 0.75 | inactive |
| GLYR1 | 1.54 | inactive |
| NRDE2 | -0.14 | inactive |
| NRDE2 | 1.95 | inactive |
| NRDE2 | -0.53 | inactive |
| NRDE2 | -0.97 | inactive |
| DDX59 | 1.69 | inactive |
| DDX59 | 3.22 | active |
| DDX59 | 1.08 | inactive |
| DDX59 | 2.58 | inactive |
| PNMT | -1.36 | inactive |
| PNMT | -0.04 | inactive |
| PNMT | 0.63 | inactive |
| PNMT | 0.8 | inactive |
| XYLT2 | 0.2 | inactive |
| XYLT2 | 0.54 | inactive |
| XYLT2 | 0.09 | inactive |
| XYLT2 | 0.51 | inactive |
| ZNF423 | 0.16 | inactive |
| ZNF423 | 1.27 | inactive |
| ZNF423 | -0.46 | inactive |
| ZNF423 | -0.09 | inactive |
| H4C5 | -1.01 | inactive |
| H4C5 | -0.92 | inactive |
| H4C5 | -0.61 | inactive |
| H4C5 | -0.64 | inactive |
| LYPLAL1 | 0.1 | inactive |
| LYPLAL1 | 0.28 | inactive |
| LYPLAL1 | 0.64 | inactive |
| LYPLAL1 | 0.54 | inactive |
| MIGA2 | 0.86 | inactive |
| MIGA2 | 1.75 | inactive |
| MIGA2 | 0.39 | inactive |
| MIGA2 | -0.3 | inactive |
| OR2B3 | 3.28 | active |
| OR2B3 | 7.77 | active |
| OR2B3 | 3.5 | active |
| OR2B3 | 4.86 | active |
| OR2Z1 | 0.4 | inactive |
| OR2Z1 | -0.26 | inactive |
| OR2Z1 | 1.03 | inactive |
| OR2Z1 | 1.14 | inactive |
| PCDHB10 | -0.33 | inactive |
| PCDHB10 | 0.35 | inactive |
| PCDHB10 | -0.1 | inactive |
| PCDHB10 | 0.12 | inactive |
| P4HB | -1.16 | inactive |
| P4HB | -0.66 | inactive |
| P4HB | -1.41 | inactive |
| P4HB | -0.72 | inactive |
| ATP5F1C | -0.67 | inactive |
| ATP5F1C | -0.71 | inactive |
| ATP5F1C | -0.42 | inactive |
| ATP5F1C | -0.84 | inactive |
| IFT122 | -1 | inactive |
| IFT122 | -0.6 | inactive |
| IFT122 | -0.23 | inactive |
| IFT122 | -0.92 | inactive |
| TARS3 | -0.8 | inactive |
| TARS3 | -0.04 | inactive |
| TARS3 | -0.99 | inactive |
| TARS3 | -1.08 | inactive |
| TROAP | 0.35 | inactive |
| TROAP | 1.14 | inactive |
| TROAP | 0.94 | inactive |
| TROAP | 1.53 | inactive |
| C4orf51 | -0.1 | inactive |
| C4orf51 | -0.03 | inactive |
| C4orf51 | -0.04 | inactive |
| C4orf51 | -0.05 | inactive |
| RHOT2 | 0.96 | inactive |
| RHOT2 | 1.89 | inactive |
| RHOT2 | 1.71 | inactive |
| RHOT2 | 2 | inactive |
| ZNF234 | 0.14 | inactive |
| ZNF234 | -1.05 | inactive |
| ZNF234 | -0.56 | inactive |
| ZNF234 | -0.21 | inactive |
| ADTRP | 1.2 | inactive |
| ADTRP | 0.41 | inactive |
| ADTRP | 0.23 | inactive |
| ADTRP | 0.44 | inactive |
| ATP1A3 | -0.98 | inactive |
| ATP1A3 | -0.94 | inactive |
| ATP1A3 | -1.37 | inactive |
| ATP1A3 | -0.95 | inactive |
| SLC39A9 | -1.14 | inactive |
| SLC39A9 | -0.53 | inactive |
| SLC39A9 | -0.31 | inactive |
| SLC39A9 | 0 | inactive |
| WFS1 | 0.34 | inactive |
| WFS1 | 0.06 | inactive |
| WFS1 | 0.69 | inactive |
| WFS1 | 1.82 | inactive |

In a second layout: results already given
PCDHB10
- TNF reporter robust z-score: -0.33
- Outcome: inactive

PCDHB10
- TNF reporter robust z-score: 0.35
- Outcome: inactive

PCDHB10
- TNF reporter robust z-score: -0.1
- Outcome: inactive

PCDHB10
- TNF reporter robust z-score: 0.12
- Outcome: inactive

P4HB
- TNF reporter robust z-score: -1.16
- Outcome: inactive

P4HB
- TNF reporter robust z-score: -0.66
- Outcome: inactive

P4HB
- TNF reporter robust z-score: -1.41
- Outcome: inactive

P4HB
- TNF reporter robust z-score: -0.72
- Outcome: inactive

ATP5F1C
- TNF reporter robust z-score: -0.67
- Outcome: inactive
